Source: the supplement of paper PMC5949888
Most values lie at the floor of the assay. Slopes are relative: functional sequences can read slightly below zero.

system: Saccharomyces cerevisiae PS128 hsf1 delta, HSF1(1-493) fusion; test: growth estimate (transactivation domain function in HSF1 fusion, heat-shock survival) (a.u. (slope of normalised read count over time)); higher = stronger growth at 37°C, i.e. more transactivation activity; details: library: random library

Row | Substance | growth estimate
1 | SCHMGGICILTSLSVVRWIW | < -0.25
2 | DVSILSFSCRAGCN | < -0.25
3 | FREITRPFPLSSASP | < -0.25
4 | GWRDASHPPSLSLKTYIRSE | < -0.25
5 | HHTPCAGRNFGLAGPS | < -0.25
6 | GLWEHLKLVGRR | < -0.25
7 | RRVDFPNSLKKAGSNTPGRT | < -0.25
8 | CTSIGSLSHQHFRCRWT | < -0.25
9 | NLCKGCALYGRPLKVSAPPP | < -0.25
10 | TSSRIL | < -0.25
11 | QKTDLSSSKEGSVR | < -0.25
12 | PHVRNMGLPRITSLFCDCIC | < -0.25
13 | NGGYGAGTPGYACVQYLRII | < -0.25
14 | AHSREGVPES | < -0.25
15 | CHDCNGRWFFRLQKNPGPIQ | < -0.25
16 | RKL | < -0.25
17 | TMVRHFVLRRSVKSWFVSRT | < -0.25
18 | RSLLMHVMCGRGLG | < -0.25
19 | AVPFVAIRLFLWS | < -0.25
20 | MFVHRPSEKRQVRLILMLNG | < -0.25
21 | DNG | < -0.25
22 | HSGSSREPSVL | < -0.25
23 | KTNALNTKTIRSGRDREPPQ | < -0.25
24 | IDSITSSGLVSVAQFRTRSR | < -0.25
25 | RAVRKVRDWWSHLILQRLTS | < -0.25
26 | LDKPVGV | < -0.25
27 | LSGETLYLRGLGSRRPPPRH | < -0.25

Row | Substance | growth estimate
28 | SILSAEGTNSQQLSSLKEQK | < -0.25
29 | LQSSLPWKSRPAEQEIWSYE | < -0.25
30 | QHR | < -0.25
31 | RTLALHRRASPTAHATYEAT | < -0.25
32 | SRKVCGKGVQTI | < -0.25
33 | ISGGIRMALKGARSSPEVLD | < -0.25
34 | LTGGPKQLKSHTWCR | < -0.25
35 | VHRSSQPFIPAYDSSHNDQT | < -0.25
36 | LGY | < -0.25
37 | NPSRSGSRPASKPTLVFVGP | < -0.25
38 | AVYSGDLGG | < -0.25
39 | YRFVRSMAAVNFKGSGDNWV | < -0.25
40 | RPRTTNGDPIGLQVPIGARD | < -0.25
41 | CLSARIHVGLSVLKTWVNAA | < -0.25
42 | LTKKLDGLRLTIRG | < -0.25
43 | NPSIGSHILAVHSRRRITSI | < -0.25
44 | ADVVIPTRQNSEK | < -0.25
45 | SEVNFKALNI | < -0.25
46 | TIASVRD | < -0.25
47 | VRPNRPTPRERRSGVHGETS | < -0.25
48 | SNVSSNETHTLYSLIDANS | < -0.25
49 | LWVANQLATKLASTDLRTR | < -0.25
50 | LPAFSPAQRPCRGKTLQHRW | < -0.25
51 | HGRHREA | < -0.25
52 | CFSLLEGVLSAGTGRHMRAN | < -0.25
53 | EQRGGLYHSGCEGSYRGMWG | < -0.25
54 | IVAMLEWDWRVLWCFV | -0.248

Row | Substance | growth estimate
55 | RRGF | < -0.25
56 | KRLTEFYVGGLS | < -0.25
57 | KAVSCNSA | < -0.25
58 | LKDSIPERYSLARPR | < -0.25
59 | CKRNATRRTGITQRNRPGTN | < -0.25
60 | WGTASH | < -0.25
61 | HIVPQRDSHTDVQKPWLK | < -0.25
62 | RYKTTRVIIAGHVNIAFRE | < -0.25
63 | SKTR | < -0.25
64 | RPFMDLSRQDVSPYCRHTKA | < -0.25
65 | LNPRSECAEPE | < -0.25
66 | RSAPSHSCPSIRRLLADYPC | < -0.25
67 | IRDCVLSTGPNLKHEICRRR | < -0.25
68 | GISAFCKYIGWM | < -0.25
69 | RGQVRVG | < -0.25
70 | TTVKLRKPLM | < -0.25
71 | RRTLAGNRAVW | -0.245
72 | PGKT | < -0.25
73 | CARQHPVRRGLSTV | < -0.25
74 | VCACNSVVVQRFGQLRRAEC | < -0.25
75 | ARSVQS | < -0.25
76 | KFNHAGPPRTFDGVVTLYVL | < -0.25
77 | ISIWLRGLCLRSSQDQGPGS | < -0.25
78 | LRVPVHATYRQDTIDQGPLP | < -0.25
79 | YGFARTSDRCLVLFRAGNSL | < -0.25

Shown as a markdown table: part of the list above

| Row | Substance | growth estimate |
| --- | --- | --- |
| 68 | GISAFCKYIGWM | < -0.25 |
| 69 | RGQVRVG | < -0.25 |
| 70 | TTVKLRKPLM | < -0.25 |

Two records drawn at random from the list so far:
Row | Substance | growth estimate
73 | CARQHPVRRGLSTV | < -0.25
68 | GISAFCKYIGWM | < -0.25
